Measured values as given in patent US20050215770A1.
Results are given in words; binding and its absence hold for the method and conditions named. Some binding calls cover weakened binding; strength is not graded here. Where a sequence is shown, tags or fusion partners need not be part of it.

Molecular target: T1, Recombinant soluble human Flag-tagged NogoR (amino acids 1 to 309 of SEQ ID NO:2) (human) (UniProt Q9BZR6)
T1 sequence (chain, biotinylated with Sulfo-NHS-LC-Biotin): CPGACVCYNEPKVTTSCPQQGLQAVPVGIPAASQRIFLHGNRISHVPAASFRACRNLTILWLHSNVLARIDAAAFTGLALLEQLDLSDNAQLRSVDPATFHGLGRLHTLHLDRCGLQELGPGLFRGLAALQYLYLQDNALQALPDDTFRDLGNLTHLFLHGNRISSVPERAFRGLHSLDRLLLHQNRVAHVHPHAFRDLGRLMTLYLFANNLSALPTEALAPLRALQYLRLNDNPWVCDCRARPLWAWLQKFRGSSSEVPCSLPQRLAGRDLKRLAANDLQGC
Test: ECL matrix titration of biotin-rHuNOGOSR-Flag against Ori-TAG Rat MAG-Fc on streptavidin beads

binding: binds
B1: Recombinant Rat MAG-Fc (R&D Systems) (Fc fusion, UniProt P07722 20-516, looked up, not shown: a dimerising Fc or GST)
chain: GHWGAWMPSSISAFEGTCVSIPCRFDFPDELRPAVVHGVWYFNSPYPKNYPPVVFKSRTQVVHESFQGRSRLLGDLGLRNCTLLLSTLSPELGGKYYFRGDLGGYNQYTFSEHSVLDIINTPNIVVPPEVVAGTEVEVSCMVPDNCPELRPELSWLGHEGLGEPTVLGRLREDEGTWVQVSLLHFVPTREANGHRLGCQAAFPNTTLQFEGYASLDVKYPPVIVEMNSSVEAIEGSHVSLLCGADSNPPPLLTWMRDGMVLREAVAESLYLDLEEVTPAEDGIYACLAENAYGQDNRTVELSVMYAPWKPTVNGTVVAVEGETVSILCSTQSNPDPILTIFKEKQILATVIYESQLQLELPAVTPEDDGEYWCVAENQYGQRATAFNLSVEFAPIILLESHCAAARDTVQCLCVVKSNPEPSVAFELPSRNVTVNETEREFVYSERSGLLLTSILTLRGQAQAPPRVICTSRNLYGTQSLELPFQGAHRLMWAKIGP
modifications: labelled with Ori-TAG (Origen-TAG-NHS)
